# Cell number after 72 h of treatment

Data from the primary screen of doi:10.1371/journal.pone.0140310, rounded.

Drug key:
PF-562271, 0.08 µM: CN(c1ncccc1CNc1nc(Nc2ccc3c(c2)CC(=O)N3)ncc1C(F)(F)F)S(C)(=O)=O
Src-I1, 2 µM: COc1cc2ncnc(Nc3ccc(Oc4ccccc4)cc3)c2cc1OC
darinaparsin, 0.4 µM: C[As](C)SC[C@H](NC(=O)CC[C@H](N)C(=O)O)C(=O)NCC(=O)O
indole-3-carbinol, 0.8 µM: OCc1c[nH]c2ccccc12
lenalidomide, 1 µM: Nc1cccc2c1CN(C1CCC(=O)NC1=O)C2=O (stereo unspecified)
decitabine, 0.1 µM: Nc1ncn([C@H]2C[C@H](O)[C@@H](CO)O2)c(=O)n1
lestaurtinib, 0.004 µM: C[C@]12O[C@H](C[C@]1(O)CO)n1c3ccccc3c3c4c(c5c6ccccc6n2c5c31)CNC4=O
veliparib, 1.4 µM: C[C@]1(c2nc3c(C(N)=O)cccc3[nH]2)CCCN1
pazopanib, 0.4 µM: Cc1ccc(Nc2nccc(N(C)c3ccc4c(C)n(C)nc4c3)n2)cc1S(N)(=O)=O
L-779450, 0.2 µM: Oc1cc(-c2nc(-c3ccccc3)[nH]c2-c2ccncc2)ccc1Cl
IMD-0354, 0.016 µM: O=C(Nc1cc(C(F)(F)F)cc(C(F)(F)F)c1)c1cc(Cl)ccc1O
selumetinib, 0.015 µM: Cn1cnc2c(F)c(Nc3ccc(Br)cc3Cl)c(C(=O)NOCCO)cc21
BI-D1870, 0.2 µM: CC(C)CCN1c2nc(Nc3cc(F)c(O)c(F)c3)ncc2N(C)C(=O)C1C (stereo unspecified)
U73122, 0.4 µM: COc1ccc2c(c1)CCC1C2CCC2(C)C(NCCCCCCN3C(=O)C=CC3=O)CCC12 (stereo unspecified)
fludarabine, 0.2 µM: Nc1nc(F)nc2c1ncn2[C@@H]1O[C@H](CO)[C@@H](O)[C@@H]1O
ABT-263, 0.4 µM: CC1(C)CCC(c2ccc(Cl)cc2)=C(CN2CCN(c3ccc(C(=O)NS(=O)(=O)c4ccc(N[C@H](CCN5CCOCC5)CSc5ccccc5)c(S(=O)(=O)C(F)(F)F)c4)cc3)CC2)C1
vorinostat, 0.08 µM: O=C(CCCCCCC(=O)Nc1ccccc1)NO
erlotinib, 0.8 µM: C#Cc1cccc(Nc2ncnc3cc(OCCOC)c(OCCOC)cc23)c1
PD173074, 0.1 µM: CCN(CC)CCCCNc1ncc2cc(-c3cc(OC)cc(OC)c3)c(NC(=O)NC(C)(C)C)nc2n1

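The test systems are human melanoma cell lines, treated with a pair of drugs for 72 h and then stained and imaged. Each value is the count of nuclei relative to DMSO-treated wells, in %, so that 100 equals the control. Concentrations were fixed for each drug; these are the lower of two levels, a fifth of the higher. These are primary screening values without error estimates.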 This is part of the screen, not chosen by result. A dash means that no value is listed here.

Drugs	COLO 829	IPC-298	LOX IMVI	A2058	C32	A101D	IST-MEL1	G-361
lenalidomide + BI-D1870	102	88.9	71.1	-	-	-	97.5	97.4
ABT-263 + decitabine	75.9	67.9	31.9	-	-	-	69.0	65.0
vorinostat + BI-D1870	92.5	99.5	102	-	-	-	103	98.0
veliparib + pazopanib	73.0	78.3	66.1	-	-	-	94.2	75.6
lestaurtinib + selumetinib	126	69.5	118	-	-	-	95.3	81.8
U73122 + veliparib	61.2	103	75.8	-	-	-	104	94.3
pazopanib + decitabine	89.9	69.4	109	-	-	-	88.3	92.0
IMD-0354 + PF-562271	55.1	103	72.3	-	-	-	94.9	102
lestaurtinib + IMD-0354	101	103	125	-	-	-	98.1	97.9
darinaparsin + indole-3-carbinol	116	93.9	87.8	-	-	-	96.2	95.3
L-779450 + erlotinib	103	70.3	96.5	-	-	-	95.9	93.8
IMD-0354 + pazopanib	103	88.8	97.1	-	-	-	101	101
erlotinib + pazopanib	80.0	74.0	92.6	-	-	-	91.1	82.2
veliparib + Src-I1	101	92.1	152	-	-	-	99.5	93.8
lenalidomide + L-779450	101	86.4	113	-	-	-	99.9	89.6
selumetinib + pazopanib	124	94.8	107	-	82.2	-	96.1	94.7
ABT-263 + IMD-0354	93.6	94.9	46.4	-	-	-	60.2	83.1
pazopanib + PF-562271	79.9	84.4	70.6	-	-	-	110	93.1
fludarabine + pazopanib	98.5	80.2	72.1	-	-	-	89.6	89.4
lestaurtinib + pazopanib	87.6	75.7	81.9	-	-	-	92.8	99.3
L-779450 + vorinostat	111	85.3	114	-	-	-	110	83.6
ABT-263 + darinaparsin	113	102	67.7	-	-	-	73.0	92.9
erlotinib + U73122	85.1	99.0	92.7	-	-	-	93.8	105
erlotinib + BI-D1870	110	95.2	88.3	-	-	-	104	95.2
pazopanib + indole-3-carbinol	91.0	85.6	101	-	-	-	92.7	90.3
vorinostat + Src-I1	118	98.6	129	-	-	-	96.9	109
darinaparsin + decitabine	77.3	61.2	120	-	-	-	91.9	96.5
indole-3-carbinol + ABT-263	80.4	105	83.5	-	-	-	70.0	85.4
PD173074 + lenalidomide	92.5	102	90.9	-	-	-	106	95.3
Src-I1 + erlotinib	74.5	82.9	81.5	-	-	-	106	100
fludarabine + IMD-0354	106	87.1	65.9	-	-	-	115	103
veliparib + BI-D1870	96.6	96.1	66.0	-	-	-	102	80.9
IMD-0354 + darinaparsin	99.9	94.5	88.2	-	-	-	103	101
selumetinib + PD173074	140	66.7	104	103	86.0	98.9	93.8	98.1
L-779450 + veliparib	116	89.2	166	-	-	-	97.2	104
PF-562271 + darinaparsin	72.5	89.7	87.6	-	-	-	98.7	87.6
veliparib + PD173074	117	95.8	125	-	-	-	94.5	96.7
IMD-0354 + indole-3-carbinol	84.4	89.7	110	-	-	-	86.7	103